Measurements published in publication PMC7790423.
These are yes or no findings as the source states them, for the method shown. In cells and extracts the contact can be indirect. Some entries that bind do so weakly or less than the wild type.

Molecular target: endogenous NEMO (human (endogenous in C8166 and MT-2)) (UniProt Q9Y6K9)
Assay: co-IP; endogenous proteins, lysates of C8166 and MT-2 cells; RIPA buffer; IP with control IgG, anti-UBE4B, anti-NEMO or anti-Tax, overnight at 4°C; immunoblot

endogenous HTLV-1 Tax of HTLV-1-transformed cell lines (from UniProt P03409 1-353)
binding: binds
